# In PubChem BioAssay AID2662 (National Center for Advancing Translational Sciences (NCATS), 2010):
# Chains of the proteins cited; added tags and fusions are not shown.
# UniProt Q03164, whole entry, looked up: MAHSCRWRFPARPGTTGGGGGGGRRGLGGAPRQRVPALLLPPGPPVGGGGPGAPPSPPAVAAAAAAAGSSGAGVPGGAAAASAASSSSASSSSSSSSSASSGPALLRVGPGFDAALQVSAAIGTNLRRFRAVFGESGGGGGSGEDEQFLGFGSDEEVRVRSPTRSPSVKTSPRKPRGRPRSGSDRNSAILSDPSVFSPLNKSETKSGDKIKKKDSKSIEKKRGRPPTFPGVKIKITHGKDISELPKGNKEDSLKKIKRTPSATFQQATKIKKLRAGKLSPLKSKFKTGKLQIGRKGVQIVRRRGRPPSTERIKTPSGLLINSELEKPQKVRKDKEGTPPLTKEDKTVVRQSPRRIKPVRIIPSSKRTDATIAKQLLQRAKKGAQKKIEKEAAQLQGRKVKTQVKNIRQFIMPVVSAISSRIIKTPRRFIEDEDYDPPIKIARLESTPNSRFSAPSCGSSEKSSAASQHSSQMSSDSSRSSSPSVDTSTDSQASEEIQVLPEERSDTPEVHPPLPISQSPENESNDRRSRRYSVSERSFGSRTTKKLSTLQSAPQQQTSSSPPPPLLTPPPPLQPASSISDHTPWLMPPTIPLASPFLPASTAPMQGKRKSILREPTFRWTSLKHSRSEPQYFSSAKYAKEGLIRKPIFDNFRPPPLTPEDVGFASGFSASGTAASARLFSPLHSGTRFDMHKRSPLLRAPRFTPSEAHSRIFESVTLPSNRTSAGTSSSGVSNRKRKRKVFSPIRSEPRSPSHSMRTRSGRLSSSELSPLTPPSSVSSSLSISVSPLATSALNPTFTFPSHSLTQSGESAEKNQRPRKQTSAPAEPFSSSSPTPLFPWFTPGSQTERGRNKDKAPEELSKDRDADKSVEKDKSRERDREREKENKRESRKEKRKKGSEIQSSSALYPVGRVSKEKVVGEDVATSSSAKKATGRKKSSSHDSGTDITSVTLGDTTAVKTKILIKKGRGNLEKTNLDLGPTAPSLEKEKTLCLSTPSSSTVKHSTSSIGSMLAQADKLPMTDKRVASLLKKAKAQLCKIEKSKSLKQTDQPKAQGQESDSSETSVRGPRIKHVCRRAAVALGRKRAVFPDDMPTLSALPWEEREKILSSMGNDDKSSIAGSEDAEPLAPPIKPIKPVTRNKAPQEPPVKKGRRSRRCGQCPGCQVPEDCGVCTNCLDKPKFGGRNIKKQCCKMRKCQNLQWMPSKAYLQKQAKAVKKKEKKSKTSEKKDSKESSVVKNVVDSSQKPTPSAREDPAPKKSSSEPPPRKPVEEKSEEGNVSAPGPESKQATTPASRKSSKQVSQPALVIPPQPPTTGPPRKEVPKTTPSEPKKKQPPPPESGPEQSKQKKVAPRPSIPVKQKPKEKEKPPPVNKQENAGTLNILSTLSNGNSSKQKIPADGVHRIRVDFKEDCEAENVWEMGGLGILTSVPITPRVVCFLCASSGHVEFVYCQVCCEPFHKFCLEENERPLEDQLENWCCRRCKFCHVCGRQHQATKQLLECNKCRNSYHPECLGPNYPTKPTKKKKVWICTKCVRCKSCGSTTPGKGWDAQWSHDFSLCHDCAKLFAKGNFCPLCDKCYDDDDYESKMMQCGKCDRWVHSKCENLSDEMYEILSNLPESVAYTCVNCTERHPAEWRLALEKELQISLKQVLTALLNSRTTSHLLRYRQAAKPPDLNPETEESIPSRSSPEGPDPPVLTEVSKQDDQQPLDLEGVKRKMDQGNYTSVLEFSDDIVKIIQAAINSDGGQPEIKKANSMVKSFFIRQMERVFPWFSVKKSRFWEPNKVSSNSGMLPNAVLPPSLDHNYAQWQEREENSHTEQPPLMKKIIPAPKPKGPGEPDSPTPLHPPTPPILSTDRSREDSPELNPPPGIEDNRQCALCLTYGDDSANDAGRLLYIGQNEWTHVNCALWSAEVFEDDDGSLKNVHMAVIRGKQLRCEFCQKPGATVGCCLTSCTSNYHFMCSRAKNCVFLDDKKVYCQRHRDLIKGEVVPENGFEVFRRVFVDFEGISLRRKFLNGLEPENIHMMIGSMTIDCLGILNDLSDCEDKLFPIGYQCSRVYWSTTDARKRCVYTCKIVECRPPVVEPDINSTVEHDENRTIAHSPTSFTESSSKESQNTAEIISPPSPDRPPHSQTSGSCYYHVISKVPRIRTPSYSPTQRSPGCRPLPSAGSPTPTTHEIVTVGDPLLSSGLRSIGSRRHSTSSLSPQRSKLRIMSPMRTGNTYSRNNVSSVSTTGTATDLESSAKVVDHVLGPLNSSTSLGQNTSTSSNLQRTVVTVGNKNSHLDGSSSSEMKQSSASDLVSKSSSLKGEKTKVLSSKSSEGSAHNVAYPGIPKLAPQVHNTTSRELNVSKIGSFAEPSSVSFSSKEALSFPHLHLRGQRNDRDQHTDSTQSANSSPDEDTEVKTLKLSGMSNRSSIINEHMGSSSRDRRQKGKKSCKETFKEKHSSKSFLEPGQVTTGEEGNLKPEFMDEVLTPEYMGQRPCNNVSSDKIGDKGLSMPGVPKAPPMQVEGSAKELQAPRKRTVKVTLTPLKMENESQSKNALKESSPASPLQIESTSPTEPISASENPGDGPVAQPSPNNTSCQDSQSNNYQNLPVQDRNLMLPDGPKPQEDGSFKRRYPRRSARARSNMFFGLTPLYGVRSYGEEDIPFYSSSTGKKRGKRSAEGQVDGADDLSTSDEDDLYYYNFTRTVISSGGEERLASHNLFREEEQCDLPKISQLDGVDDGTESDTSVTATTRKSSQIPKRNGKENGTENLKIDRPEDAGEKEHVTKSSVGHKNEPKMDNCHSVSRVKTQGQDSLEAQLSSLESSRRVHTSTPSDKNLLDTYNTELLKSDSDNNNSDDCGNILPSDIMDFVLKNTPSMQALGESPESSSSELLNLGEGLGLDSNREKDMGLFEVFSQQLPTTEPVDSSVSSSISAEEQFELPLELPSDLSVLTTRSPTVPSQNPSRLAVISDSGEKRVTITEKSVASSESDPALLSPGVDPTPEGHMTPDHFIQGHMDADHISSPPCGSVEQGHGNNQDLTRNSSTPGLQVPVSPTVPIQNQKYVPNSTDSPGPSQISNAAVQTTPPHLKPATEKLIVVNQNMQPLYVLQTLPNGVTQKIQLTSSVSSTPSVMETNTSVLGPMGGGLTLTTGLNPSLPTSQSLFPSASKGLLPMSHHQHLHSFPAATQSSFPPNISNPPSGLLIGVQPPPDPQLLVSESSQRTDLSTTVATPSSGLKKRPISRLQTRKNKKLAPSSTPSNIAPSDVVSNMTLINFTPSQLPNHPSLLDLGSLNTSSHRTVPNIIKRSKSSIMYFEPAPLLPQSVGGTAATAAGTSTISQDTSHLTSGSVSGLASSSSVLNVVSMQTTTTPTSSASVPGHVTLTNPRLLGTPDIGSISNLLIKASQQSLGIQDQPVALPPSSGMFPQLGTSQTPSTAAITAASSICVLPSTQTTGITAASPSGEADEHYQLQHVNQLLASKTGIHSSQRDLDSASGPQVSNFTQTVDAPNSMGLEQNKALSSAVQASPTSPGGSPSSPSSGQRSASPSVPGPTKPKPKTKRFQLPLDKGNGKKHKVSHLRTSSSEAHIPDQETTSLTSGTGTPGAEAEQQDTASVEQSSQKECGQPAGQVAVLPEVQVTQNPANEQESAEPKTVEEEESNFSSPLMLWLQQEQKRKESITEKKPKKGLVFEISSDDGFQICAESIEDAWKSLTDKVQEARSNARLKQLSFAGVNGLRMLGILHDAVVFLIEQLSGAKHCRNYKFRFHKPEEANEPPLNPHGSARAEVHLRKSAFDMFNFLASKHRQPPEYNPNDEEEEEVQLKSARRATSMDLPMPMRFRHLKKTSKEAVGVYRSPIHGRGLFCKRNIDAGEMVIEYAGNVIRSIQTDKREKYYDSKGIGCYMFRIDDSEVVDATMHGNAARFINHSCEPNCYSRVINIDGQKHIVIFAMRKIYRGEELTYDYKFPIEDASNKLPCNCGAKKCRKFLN
# The campaign covered roughly 290,000 compounds. About 110 (0.038%) were called active. The inconclusive results got no clear call from the source; some entries with a clear call stand among them for comparison. Calls follow the shape of the dose curve; as a rule, active = well fitted inhibition curve with a large enough effect in the polarisation, with a control signal flat (not every such curve was filed as active); inconclusive = small, poorly fitted or top-dose-only effect, or effect the other way, or a change in a side signal; inactive = no such curve, though single readings can be large or run the other way; the % refers to the polarisation. Potencies beside an inconclusive call are fits to weak or partial responses and may not hold up. “Side channel” marks fits to a control or component signal instead of the main read-out.
# Biological target: Histone-lysine N-methyltransferase 2A (Homo sapiens) (UniProt Q03164)
# Assay: qHTS Fluorescence Polarization Assay for Inhibitors of MLL CXXC domain - DNA interaction
# Details: MLL-CXXC / FITC-HOXA9 DNA fluorescence polarization; series mostly up to 115 µM
# Outline: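 Fluorescence polarization: 7 uM MLL-CXXC (stock) preincubated 5 min with compounds, then 50 nM fluorescein-HOX-A9 DNA (stock) added; 30 min ambient. Buffer 50 mM Tris-HCl pH 7.5, 50 mM NaCl, 1 mM DTT, 0.05% BSA.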
# Potency is read from the fitted curve at half-maximal effect.
row,Compound,Potency
1,COn1c(-c2ccc(Cl)cc2)nc2ncccc21,"inconclusive: 14.1 µM [inhibitor, single point]"
2,Cc1cccc(/C=N/n2c(-c3ccccn3)n[nH]c2=S)c1,"inconclusive: 17.8 µM [fluorescent, side channel, partial curve]"
3,CCOc1ccc(CNC(=O)CCS(=O)(=O)Cc2ccc(C)cc2)cc1OC,inactive
4,CC(C)=C(NC(=O)c1ccccc1)C(=O)Nc1cccc(C)c1,"inconclusive: 35.5 µM [fluorescent, side channel, partial curve]"
5,CCCCNC(=O)COC(=O)CNC(=O)c1cc(Cl)cc([N+](=O)[O-])c1,"inconclusive: 5.01 µM [quencher, side channel, full curve]"
6,CN(CCc1ccccn1)C(=O)c1ccc(OC(F)(F)F)cc1,"inconclusive: 14.1 µM [fluorescent, side channel, full curve]"
7,CCOC(=O)N1CCN(C(=O)C2CCN(S(=O)(=O)c3cc(C)ccc3OC)CC2)CC1,"inconclusive: 39.8 µM [quencher, side channel, single point]"
8,COc1cc(/C=C2/C(=N)N3C(c4ccccc4)=CSC3=NC2=O)ccc1OCC(=O)O,"inconclusive: 22.4 µM [inhibitor, partial curve]"
9,O=C(c1ccsc1)N1CCCC(Nc2cccc(F)c2)C1 (stereo unspecified),"inconclusive: 89.1 µM [quencher, side channel, single point]"
10,Cc1nnc(SCC(=O)NC2CCCCC2C)s1 (stereo unspecified),"inconclusive: 7.08 µM [inhibitor, single point]"
11,COc1ccccc1OCCNCC(O)COc1cccc2[nH]c3ccccc3c12 (stereo unspecified),"inconclusive: 25.1 µM [quencher, side channel, partial curve]"
12,CCCN(C(=O)CSc1nnnn1-c1ccccc1OC)C1CCS(=O)(=O)C1 (stereo unspecified),"inconclusive: 15.8 µM [quencher, side channel, single point]"
13,COCCOc1ccc(C(F)(F)F)cc1NC(=O)c1ccc(C(F)(F)F)cc1,"inconclusive: 14.1 µM [quencher, side channel, single point]"
14,CN(C)c1ccc(/C=N/N(CCO)C2=NS(=O)(=O)c3ccccc32)cc1,"inconclusive: 31.6 µM [fluorescent, side channel, partial curve]"
15,CC(C)C(C(=O)O)N1C(=O)/C(=C/c2cccn2C)SC1=S (stereo unspecified),"inconclusive: 63.1 µM [fluorescent, side channel, single point]"
16,CCCCOC(=O)CSc1nc(N)c(C#N)c(-c2ccc(OCC)cc2)c1C#N,inactive
17,CC(C)(C)c1ccc(NC(=O)c2ccc(=O)[nH]n2)cc1,"inconclusive: 50.1 µM [fluorescent, side channel, partial curve]"
18,c1ccc(-c2ccccc2OCCCCN2CCCCC2)cc1,"inconclusive: 35.5 µM [inhibitor, single point]"
19,N#Cc1cc(C(=O)c2ccccc2O)cn(-c2nccs2)c1=O,"inconclusive: 7.94 µM [fluorescent, side channel, full curve]"
20,O/C(=C\c1nc2ccccc2nc1/C=C(\O)c1ccccc1)c1ccccc1,"inconclusive: 31.6 µM [fluorescent, side channel, partial curve]"
21,O=C(Nc1ccccc1F)c1ccc2nc(N3C(=O)CCC3=O)sc2c1,inactive

row,Compound,Potency
1,COc1cc(C(=O)Nn2c(O)c(C3=c4ccccc4=NC3=O)sc2=S)ccc1O,"inconclusive: 31.6 µM [inhibitor, partial curve, poor fit]"
2,CSc1nnc(C)c(/C=C/Nc2ccc(F)cc2F)n1,"inconclusive: 3.55 µM [fluorescent, side channel, partial curve]"
3,CCC(=O)NC(c1cccs1)c1cc([N+](=O)[O-])c2cccnc2c1O (stereo unspecified),inactive
4,CC(C)NC(=O)c1ccccc1NC(=O)/C=C/c1ccc([N+](=O)[O-])cc1,"inconclusive: 8.91 µM [inhibitor, single point]"
5,Fc1ccc(Oc2cnc3ccccc3n2)cc1,"inconclusive: 7.94 µM [fluorescent, side channel, full curve]"
6,COc1ccccc1N=Nc1ccc(O)c2ncccc12,inactive
7,O=C(CNC(=O)c1ccc(Br)o1)NCCc1ccc(F)cc1,"inconclusive: 8.91 µM [quencher, side channel, single point]"
8,Cc1ccc(C(=O)NCCN2C3=NC[C@H](C(C)C)N3C[C@H]2Cc2ccc(O)cc2)cc1Br,inactive
9,CN(C(=O)c1ccncc1)c1ccccc1,"inconclusive: 14.1 µM [fluorescent, side channel, single point]"
10,Cc1c(C#N)c2ncn(Cc3ccccn3)c(=O)c2n1-c1ccccc1,"inconclusive: 15.8 µM [inhibitor, single point]"
11,CCCCOCCCN1CC(=O)N2[C@@H](Cc3c([nH]c4ccccc34)C2(C)C)C1=O,"inconclusive: 79.4 µM [fluorescent, side channel, single point]"
12,C#CCOCCOCCOCCNc1nc(N2CCN(C(=O)[C@H](CCCCN)n3cc([C@@H](N)CO)nn3)CC2)nc(N2CCN(C(=O)[C@H](Cc3cc4ccccc4[nH]3)n3cc([C@@H](N)CC(C)C)nn3)CC2)n1,"inconclusive: 22.4 µM [quencher, side channel, full curve]"
13,Cc1onc(-c2ccccc2Cl)c1C(=O)Oc1cc(N)n(S(=O)(=O)c2ccc(F)cc2)n1,"inconclusive: 39.8 µM [inhibitor, single point]"
14,COc1cc(C2C(C(=O)c3ccco3)=C(O)C(=O)N2c2cc(C)on2)cc(Br)c1O (stereo unspecified),inactive
15,Cc1sc(-c2ccccn2)nc1OC(=O)c1cccc(Cl)c1Cl,"inconclusive: 7.08 µM [fluorescent, side channel, full curve]"
16,O=C1/C(=C\c2cccs2)N=C(c2cccs2)N1Nc1ccccc1,"inconclusive: 35.5 µM [inhibitor, single point]"
17,O=C(COC(=O)C1CC(=O)N(Cc2ccccc2)C1)c1ccc(Br)cc1 (stereo unspecified),"inconclusive: 28.2 µM [fluorescent, side channel, partial curve, poor fit]"
18,COC(=O)c1cc(-c2ccc(Br)cc2)c2c(=O)[nH]c(=O)n(C)c2n1,"inconclusive: 10 µM [fluorescent, side channel, single point]"
19,Cc1ccc(SCCc2cc[n+](CC(=O)c3ccccc3)cc2)cc1,inactive
20,CCOC(=O)c1cnn(Cc2cccc(Cl)c2)c1C,"inconclusive: 22.4 µM [fluorescent, side channel, full curve, poor fit]"
21,CN(C)CCNC(=O)c1ccc(COc2ccc(Cl)cc2Cl)cc1,"inconclusive: 25.1 µM [quencher, side channel, partial curve]"

# Among those listed so far, 2 have a CF3 group.
row,Compound,Potency
6,CN(CCc1ccccn1)C(=O)c1ccc(OC(F)(F)F)cc1,"inconclusive: 14.1 µM [fluorescent, side channel, full curve]"
13,COCCOc1ccc(C(F)(F)F)cc1NC(=O)c1ccc(C(F)(F)F)cc1,"inconclusive: 14.1 µM [quencher, side channel, single point]"

# Next compounds follow.

row,Compound,Potency
1,CCc1cccc(CC)c1NC(=O)CSc1nc2ccc(N3C(=O)C4C(C3=O)[C@H]3C=C[C@@H]4C3)cc2s1 (stereo partly specified),"inconclusive: 63.1 µM [inhibitor, single point]"
2,Cc1cc(C)c2c(n1)sc1c(N3CCN(C)CC3)ncnc12,"inconclusive: 50.1 µM [inhibitor, partial curve]"
3,O=C(Nc1ccc(F)c(Cl)c1)Nc1csc2ccccc12,inactive
4,CCOc1cccc(-c2nnc3sc(-c4cc(OC)c(OC)cc4OC)nn23)c1,inactive
5,Cc1ccc(Cl)cc1NC(=O)C(NS(=O)(=O)c1cccs1)c1ccccc1 (stereo unspecified),inactive
6,C/C(CC1CC(C)OC1=O)=N\NC(N)=S (stereo unspecified),"inconclusive: 39.8 µM [quencher, side channel, single point]"
7,CNc1ccccc1C(=O)OC(C)C(=O)Nc1ccc(S(=O)(=O)N2CCCC2)cc1 (stereo unspecified),"inconclusive: 1.41 µM [fluorescent, side channel, full curve]"
8,O=c1cc(CSc2nnnn2-c2ccccc2)nc2sccn12,inactive
9,Cc1cc(C)c2c(=O)n(CC(=O)Nc3cccc(Cl)c3C)sc2n1,inactive
10,CN(C)C(=S)Nc1nc2ccccc2s1,"inconclusive: 100 µM [inhibitor, partial curve]"
11,CC[n+]1c(C=C2C=C(C)OC(C)=C2)sc2ccccc21,inactive
12,CCNC(=S)N1CCC(n2cnc3ccccc32)CC1,"inconclusive: 100 µM [inhibitor, partial curve, poor fit]"
13,O=C(NC(Cc1ccccc1)C(=O)O)/C(=C/c1ccccc1)NC(=O)c1ccccc1 (stereo unspecified),"inconclusive: 14.1 µM [quencher, side channel, single point]"
14,O=C(Nc1nc(-c2ccco2)c(-c2ccco2)s1)C1CC(=O)N(c2ccc3c(c2)OCCO3)C1 (stereo unspecified),inactive
15,CCN1C(=O)/C(=C/C=C2/CCCN2C)OC1=S,"inconclusive: 31.6 µM [fluorescent, side channel, single point]"
16,Nc1ccc(Br)c2c1C(=O)c1ccccc1C2=O,"inconclusive: 7.08 µM [quencher, side channel, full curve]"
17,O=C(Nc1ccc2nc(-c3ccco3)c(-c3ccco3)nc2c1)N1CCCCCC1,"inconclusive: 89.1 µM [inhibitor, single point]"
18,COc1cc(/C=C2\C(=N)N3N=CSC3=NC2=O)cc(Br)c1OC(=O)c1ccco1,"inconclusive: 11.2 µM [fluorescent, side channel, partial curve]"
19,COc1ccc(/C(O)=C/c2nc3ccccc3n(-c3ccccc3)c2=O)cc1,"inconclusive: 8.91 µM [fluorescent, side channel, full curve]"
